PubChem BioAssay AID504784, Drosophila RNAi Screening Center | 2011
In all, the deposit lists about 17,000 reagents; this is a random part of those with a known target gene and a result. 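Each column is one replicate's B-score; the combined score over replicates was not deposited, so single values may mislead.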 Names joined by + are all predicted targets of the reagent. Further read-outs or replicates are left out here.

Assay: 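Search for regulators of lipid droplet storage in oleate-fed fly cells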 (primary screen)
System: Drosophila Kc167 embryonic cells
Reagent: long dsRNA against Drosophila genes, about 250 ng dsRNA per well
Timing: 4 days
Challenge: cells fed 400 µM oleic acid bound to BSA
Measurement: 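Microscope images give a droplet-to-nucleus area ratio, taken as log and converted to a screen-wide B-score; higher values mean greater lipid storage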
Direction: droplet/nuclear area B-score: higher = more stored lipid (overstorage)

droplet/nuclear area B-score, replicate 1, by gene and reagent
CG2291: DRSC06836 -0.717
CG15553: DRSC15091 0.0479
CG14752: DRSC06488 -0.0546
CG13010: DRSC19529 -0.843
CG14417: DRSC18638 -0.792
Kat60: DRSC12378 0.863
BORCS7 + CG13430: DRSC06392 -0.00295; DRSC06707 1.08
CG32052: DRSC10966 -0.00856
Egfr: DRSC03871 -0.0554; DRSC04613 1.48
cGlr2: DRSC04017 1.4
Blos4: DRSC10151 -0.0442
Gr93d: DRSC21941 -1.01
CG17005: DRSC02556 0.159
Msh6: DRSC10759 -0.316
Mapmodulin: DRSC06956 -0.0225
thoc7: DRSC08512 0.735
CG1722: DRSC20547 -0.422
CG43102: DRSC14797 -1.05; DRSC16239 0.945
Atf6: DRSC04743 -1.31; DRSC04889 -1.05
CG32050 (retired record): DRSC10173 2.6
GstZ1: DRSC16478 -0.58
Drsl2: DRSC08160 0.627
ord: DRSC04706 -0.864
CG3009: DRSC18263 -1.36
CG13229: DRSC06349 0.772
Cp19: DRSC11121 -0.921
CG42307 + mus312: DRSC11008 -1.27
CG33339: DRSC22917 -0.242
CG7907: DRSC16339 0.563
CG30036: DRSC21334 -0.06

Quoted from the listing for reference:
droplet/nuclear area B-score, replicate 1, by gene and reagent
CG13229: DRSC06349 0.772
Cp19: DRSC11121 -0.921
